Some of the results follow.
Assays:
Assay in all cases: log2 fold change, soluble protein after heating vs DMSO (PISA); higher = thermal stabilisation; K562 lysate, 10 uM; active = over 0.2 and 3.5 SD of the protein, either way, in both replicates (recomputed)
erlotinib = compound: C#Cc1cccc(Nc2ncnc3cc(OCCOC)c(OCCOC)cc23)c1 [erlotinib]
Summary of the method: (§1)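 K562 pellets were dounce-homogenised in PBS pH 7.4 with 1 mM MgCl2, and the crude extract at 1 mg/mL protein was treated with 10 μM compound for 30 min. Aliquots were heated for 3 min across 48°C-58°C, pooled, and brought to 0.5% NP-40 at 4°C; soluble protein was the supernatant after 21,000xg for 90 min. Soluble protein was quantified by TMTpro 16plex LC-MS/MS with channel sums equalised, and reported as log2 fold change in thermal stability against DMSO controls, with values from duplicates.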

By UniProt entry, the sequences of proteins in these tests, tags left out. Where a name states a change or a piece, a line headed by the entry shows the natural chain unless it says otherwise.
UniProt Q02447: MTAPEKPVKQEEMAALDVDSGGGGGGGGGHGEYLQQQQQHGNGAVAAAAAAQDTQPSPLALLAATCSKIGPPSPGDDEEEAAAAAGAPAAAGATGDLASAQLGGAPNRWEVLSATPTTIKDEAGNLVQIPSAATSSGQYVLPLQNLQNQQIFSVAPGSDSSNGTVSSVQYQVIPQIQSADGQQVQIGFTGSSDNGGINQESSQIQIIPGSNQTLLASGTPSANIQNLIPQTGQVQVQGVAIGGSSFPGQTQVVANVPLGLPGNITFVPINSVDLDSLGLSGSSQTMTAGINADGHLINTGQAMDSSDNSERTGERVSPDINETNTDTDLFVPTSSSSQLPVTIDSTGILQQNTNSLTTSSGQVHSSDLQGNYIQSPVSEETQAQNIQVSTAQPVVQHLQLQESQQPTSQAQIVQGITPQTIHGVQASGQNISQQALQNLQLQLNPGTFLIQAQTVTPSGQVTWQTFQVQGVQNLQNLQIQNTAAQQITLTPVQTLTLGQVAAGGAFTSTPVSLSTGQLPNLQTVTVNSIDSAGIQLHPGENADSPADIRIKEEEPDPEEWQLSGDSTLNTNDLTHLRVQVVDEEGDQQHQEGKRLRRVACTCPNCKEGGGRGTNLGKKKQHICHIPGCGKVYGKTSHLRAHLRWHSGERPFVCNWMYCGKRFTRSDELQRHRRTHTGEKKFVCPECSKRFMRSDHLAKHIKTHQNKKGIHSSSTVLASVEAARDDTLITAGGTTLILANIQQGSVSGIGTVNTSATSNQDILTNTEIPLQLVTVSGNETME
UniProt P51532, whole entry, looked up: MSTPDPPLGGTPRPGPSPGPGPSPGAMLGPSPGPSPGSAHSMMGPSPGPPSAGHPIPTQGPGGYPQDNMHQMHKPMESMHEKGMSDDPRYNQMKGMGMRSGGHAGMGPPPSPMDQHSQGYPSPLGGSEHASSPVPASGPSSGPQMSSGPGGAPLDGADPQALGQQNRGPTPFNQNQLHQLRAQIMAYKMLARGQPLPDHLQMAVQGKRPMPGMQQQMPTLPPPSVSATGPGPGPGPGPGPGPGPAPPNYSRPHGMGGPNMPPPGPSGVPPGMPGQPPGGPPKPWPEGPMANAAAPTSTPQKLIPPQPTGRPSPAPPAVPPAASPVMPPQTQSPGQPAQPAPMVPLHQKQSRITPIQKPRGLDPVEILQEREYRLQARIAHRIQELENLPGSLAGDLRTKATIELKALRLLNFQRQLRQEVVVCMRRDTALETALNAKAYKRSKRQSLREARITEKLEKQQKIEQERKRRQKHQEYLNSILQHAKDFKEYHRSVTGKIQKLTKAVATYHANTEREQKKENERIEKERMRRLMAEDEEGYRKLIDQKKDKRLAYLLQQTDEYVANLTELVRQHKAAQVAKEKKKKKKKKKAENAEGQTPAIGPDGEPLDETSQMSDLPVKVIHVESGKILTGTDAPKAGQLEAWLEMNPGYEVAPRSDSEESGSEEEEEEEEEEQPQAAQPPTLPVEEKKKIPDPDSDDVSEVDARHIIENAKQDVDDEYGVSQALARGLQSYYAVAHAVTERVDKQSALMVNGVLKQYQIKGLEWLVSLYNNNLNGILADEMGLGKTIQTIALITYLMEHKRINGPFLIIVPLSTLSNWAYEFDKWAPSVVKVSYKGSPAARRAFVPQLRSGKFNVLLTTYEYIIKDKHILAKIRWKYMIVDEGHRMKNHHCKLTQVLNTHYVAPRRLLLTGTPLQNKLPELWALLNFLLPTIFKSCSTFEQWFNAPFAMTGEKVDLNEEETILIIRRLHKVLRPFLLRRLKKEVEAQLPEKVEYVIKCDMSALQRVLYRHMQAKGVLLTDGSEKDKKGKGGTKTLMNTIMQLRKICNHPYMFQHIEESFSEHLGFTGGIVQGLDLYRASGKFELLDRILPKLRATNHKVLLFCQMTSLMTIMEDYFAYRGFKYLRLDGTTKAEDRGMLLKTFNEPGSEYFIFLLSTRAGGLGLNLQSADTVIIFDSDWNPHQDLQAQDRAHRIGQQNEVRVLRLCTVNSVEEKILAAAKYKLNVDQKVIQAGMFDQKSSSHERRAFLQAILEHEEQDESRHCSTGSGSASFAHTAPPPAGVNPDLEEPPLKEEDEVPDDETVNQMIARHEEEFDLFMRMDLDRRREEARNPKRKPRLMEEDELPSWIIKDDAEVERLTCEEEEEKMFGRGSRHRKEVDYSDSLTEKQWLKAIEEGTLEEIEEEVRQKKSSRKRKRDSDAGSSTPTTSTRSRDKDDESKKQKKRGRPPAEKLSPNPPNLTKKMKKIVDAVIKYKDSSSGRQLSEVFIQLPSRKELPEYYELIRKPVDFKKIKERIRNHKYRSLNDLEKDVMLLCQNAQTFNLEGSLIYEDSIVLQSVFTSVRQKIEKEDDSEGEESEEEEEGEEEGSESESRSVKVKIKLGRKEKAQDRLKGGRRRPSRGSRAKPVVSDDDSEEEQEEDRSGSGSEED
UniProt P09486: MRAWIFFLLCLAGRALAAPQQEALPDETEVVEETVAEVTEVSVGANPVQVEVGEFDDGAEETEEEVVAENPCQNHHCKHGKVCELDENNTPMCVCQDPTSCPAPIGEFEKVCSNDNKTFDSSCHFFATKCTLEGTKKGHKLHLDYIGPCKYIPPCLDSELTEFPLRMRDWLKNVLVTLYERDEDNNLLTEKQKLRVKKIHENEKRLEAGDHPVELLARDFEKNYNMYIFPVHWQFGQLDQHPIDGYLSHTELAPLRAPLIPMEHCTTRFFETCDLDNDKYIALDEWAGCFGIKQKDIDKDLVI
UniProt Q5SQN1: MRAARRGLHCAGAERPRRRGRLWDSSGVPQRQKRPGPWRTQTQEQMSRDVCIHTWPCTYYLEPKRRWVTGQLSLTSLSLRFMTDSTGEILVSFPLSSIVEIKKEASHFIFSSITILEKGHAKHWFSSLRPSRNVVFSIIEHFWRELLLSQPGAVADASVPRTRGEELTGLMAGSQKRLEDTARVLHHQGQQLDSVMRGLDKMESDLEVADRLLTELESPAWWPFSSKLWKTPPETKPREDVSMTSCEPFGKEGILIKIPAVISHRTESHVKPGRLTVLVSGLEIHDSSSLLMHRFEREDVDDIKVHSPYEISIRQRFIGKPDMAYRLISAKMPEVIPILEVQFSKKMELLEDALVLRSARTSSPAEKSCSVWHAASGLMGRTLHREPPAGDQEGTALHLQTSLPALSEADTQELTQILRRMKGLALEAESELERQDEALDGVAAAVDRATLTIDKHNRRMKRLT
UniProt Q9NX45: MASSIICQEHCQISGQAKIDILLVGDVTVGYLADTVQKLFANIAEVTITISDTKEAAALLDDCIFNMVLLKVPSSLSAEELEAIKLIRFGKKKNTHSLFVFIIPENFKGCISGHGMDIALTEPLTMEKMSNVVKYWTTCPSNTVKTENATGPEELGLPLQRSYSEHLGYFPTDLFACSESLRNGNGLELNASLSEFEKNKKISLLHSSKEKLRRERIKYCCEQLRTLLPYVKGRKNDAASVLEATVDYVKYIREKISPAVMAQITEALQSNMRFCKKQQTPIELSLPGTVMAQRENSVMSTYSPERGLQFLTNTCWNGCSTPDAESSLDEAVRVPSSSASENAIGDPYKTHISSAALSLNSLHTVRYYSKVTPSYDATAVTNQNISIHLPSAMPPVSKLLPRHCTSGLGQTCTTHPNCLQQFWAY
UniProt O75971: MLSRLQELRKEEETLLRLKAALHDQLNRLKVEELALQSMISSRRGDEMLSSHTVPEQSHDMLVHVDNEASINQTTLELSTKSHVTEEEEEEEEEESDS
UniProt Q6X4U4: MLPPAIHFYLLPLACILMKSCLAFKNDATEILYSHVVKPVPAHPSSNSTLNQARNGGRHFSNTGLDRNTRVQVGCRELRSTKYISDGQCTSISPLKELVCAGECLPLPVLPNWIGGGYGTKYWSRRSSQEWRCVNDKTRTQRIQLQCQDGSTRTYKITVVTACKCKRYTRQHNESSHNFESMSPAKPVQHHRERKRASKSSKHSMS
UniProt P58511: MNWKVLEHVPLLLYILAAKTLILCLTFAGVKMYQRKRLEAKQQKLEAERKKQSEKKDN
UniProt Q8TAD8: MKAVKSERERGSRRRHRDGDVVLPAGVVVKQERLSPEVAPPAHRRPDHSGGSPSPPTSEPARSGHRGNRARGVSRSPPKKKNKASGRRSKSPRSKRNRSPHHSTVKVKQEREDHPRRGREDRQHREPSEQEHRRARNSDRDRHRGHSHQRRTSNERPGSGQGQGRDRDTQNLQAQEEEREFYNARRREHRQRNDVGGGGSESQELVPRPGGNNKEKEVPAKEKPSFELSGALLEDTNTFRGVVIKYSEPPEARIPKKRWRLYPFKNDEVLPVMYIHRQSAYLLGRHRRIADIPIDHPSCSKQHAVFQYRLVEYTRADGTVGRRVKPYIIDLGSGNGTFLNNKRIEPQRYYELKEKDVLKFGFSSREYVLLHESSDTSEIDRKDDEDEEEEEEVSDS
UniProt Q8WVI0: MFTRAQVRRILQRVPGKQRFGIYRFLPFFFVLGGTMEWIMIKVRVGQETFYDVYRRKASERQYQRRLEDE
UniProt Q5SXM2: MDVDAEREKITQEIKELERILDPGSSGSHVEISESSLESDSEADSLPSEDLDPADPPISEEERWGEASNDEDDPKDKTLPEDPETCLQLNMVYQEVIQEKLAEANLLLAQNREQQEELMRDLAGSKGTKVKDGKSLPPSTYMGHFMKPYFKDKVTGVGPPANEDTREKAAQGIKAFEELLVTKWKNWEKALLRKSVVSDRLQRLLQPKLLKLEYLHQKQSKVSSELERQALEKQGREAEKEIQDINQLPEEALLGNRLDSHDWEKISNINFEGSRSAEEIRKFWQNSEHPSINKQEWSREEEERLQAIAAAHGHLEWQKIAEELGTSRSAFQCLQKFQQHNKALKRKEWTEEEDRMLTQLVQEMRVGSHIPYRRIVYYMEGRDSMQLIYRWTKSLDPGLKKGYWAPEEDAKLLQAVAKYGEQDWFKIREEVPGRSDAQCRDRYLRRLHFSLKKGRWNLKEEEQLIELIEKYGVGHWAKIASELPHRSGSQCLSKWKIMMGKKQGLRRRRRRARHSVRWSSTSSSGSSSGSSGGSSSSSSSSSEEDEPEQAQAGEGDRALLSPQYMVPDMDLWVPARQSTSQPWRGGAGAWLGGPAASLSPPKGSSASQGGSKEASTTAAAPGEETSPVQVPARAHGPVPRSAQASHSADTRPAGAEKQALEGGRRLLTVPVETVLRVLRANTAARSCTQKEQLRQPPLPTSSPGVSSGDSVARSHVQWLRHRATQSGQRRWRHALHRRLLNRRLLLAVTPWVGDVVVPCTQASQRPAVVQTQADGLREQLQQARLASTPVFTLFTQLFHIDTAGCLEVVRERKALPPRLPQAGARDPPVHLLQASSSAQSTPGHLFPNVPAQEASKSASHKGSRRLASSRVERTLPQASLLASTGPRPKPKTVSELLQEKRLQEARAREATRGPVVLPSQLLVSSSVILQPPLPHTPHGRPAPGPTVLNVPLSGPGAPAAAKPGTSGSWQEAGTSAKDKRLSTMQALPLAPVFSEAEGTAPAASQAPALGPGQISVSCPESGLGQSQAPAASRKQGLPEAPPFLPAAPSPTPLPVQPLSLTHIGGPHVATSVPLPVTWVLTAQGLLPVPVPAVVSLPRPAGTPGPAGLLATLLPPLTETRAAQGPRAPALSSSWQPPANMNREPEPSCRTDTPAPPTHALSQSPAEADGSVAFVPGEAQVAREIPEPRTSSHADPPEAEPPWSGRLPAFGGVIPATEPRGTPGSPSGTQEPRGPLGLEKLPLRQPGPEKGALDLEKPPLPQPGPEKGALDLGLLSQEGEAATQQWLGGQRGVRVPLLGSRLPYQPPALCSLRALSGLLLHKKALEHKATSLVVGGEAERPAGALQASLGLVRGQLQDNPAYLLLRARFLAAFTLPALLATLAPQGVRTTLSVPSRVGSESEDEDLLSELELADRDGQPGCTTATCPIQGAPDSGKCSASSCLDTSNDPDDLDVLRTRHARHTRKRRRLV
UniProt Q6STE5, whole entry, looked up: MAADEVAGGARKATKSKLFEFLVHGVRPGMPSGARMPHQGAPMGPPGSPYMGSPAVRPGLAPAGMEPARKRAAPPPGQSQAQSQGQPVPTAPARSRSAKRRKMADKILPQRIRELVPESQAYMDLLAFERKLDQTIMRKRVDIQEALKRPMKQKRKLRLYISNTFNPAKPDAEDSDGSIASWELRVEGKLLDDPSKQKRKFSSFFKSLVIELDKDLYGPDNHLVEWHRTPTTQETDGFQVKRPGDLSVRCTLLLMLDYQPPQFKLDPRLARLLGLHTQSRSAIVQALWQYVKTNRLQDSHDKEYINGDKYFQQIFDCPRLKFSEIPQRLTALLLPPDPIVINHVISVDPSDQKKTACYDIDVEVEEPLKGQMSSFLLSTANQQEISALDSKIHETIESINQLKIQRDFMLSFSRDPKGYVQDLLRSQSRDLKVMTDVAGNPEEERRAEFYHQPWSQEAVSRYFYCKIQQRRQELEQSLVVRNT
UniProt Q9BV90: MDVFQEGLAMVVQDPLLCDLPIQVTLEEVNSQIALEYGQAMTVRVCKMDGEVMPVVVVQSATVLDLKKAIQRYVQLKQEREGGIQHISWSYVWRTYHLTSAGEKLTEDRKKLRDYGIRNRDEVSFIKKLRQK

[1] = compound: C1=CC(=CC=C1C2=NC3=C(N2)C=C(C=C3)C(=O)N)OC4=CC=C(C=C4)Cl
Summary of the method: as §1

[2] = compound: C1=CC2=NC=CN=C2C=C1/C=C/3\C(=O)NC(=O)S3
Summary of the method: as §1

[3] = compound: C1=CC=C(C=C1)C2=NC(=C(N2)C3=CC=NC=C3)C4=CC(=C(C=C4)Cl)O
Summary of the method: as §1

[4] = compound: C1CCN(C1)C(=O)NC2=CC=CC(=C2)NC3=NC=C(C(=N3)NCCC4=CN=CN4)Br
Summary of the method: as §1

[5] = compound: C1CN(CCC1(CC2=CC=C(C=C2)Cl)N)C3=NC=NC4=C3C=CN4
Summary of the method: as §1

IRAK-1-4 Inhibitor I = compound: C1COCCN1CCN2C3=CC=CC=C3N=C2NC(=O)C4=CC(=CC=C4)[N+](=O)[O-] [IRAK-1-4 Inhibitor I]
Summary of the method: as §1

ibrutinib = compound: C=CC(=O)N1CCC[C@@H](n2nc(-c3ccc(Oc4ccccc4)cc3)c3c(N)ncnc32)C1 [ibrutinib]
Summary of the method: as §1

[6] = compound: CC(=O)c1cnc2ccc(-c3cc(Cl)c(O)c(Cl)c3)nc2c1N[C@H]1CC[C@H](CN(C)C)CC1
Summary of the method: as §1

ralimetinib = compound: CC(C)(C)Cn1c(N)nc2ccc(-c3[nH]c(C(C)(C)C)nc3-c3ccc(F)cc3)nc21 [ralimetinib]
Summary of the method: as §1

[7] = compound: CC(C)(O)CC(=O)NCCn1ccc2ncnc(Nc3ccc(Oc4cccc(C(F)(F)F)c4)c(Cl)c3)c21
Summary of the method: as §1

[8] = compound: CC(C)C1=C2N=C(C=C(N2N=C1)NCC3=CC=CC=C3)NCCCCCCN
Summary of the method: as §1

[9] = compound: CC1=C(C(CC(=O)N1)C2=CC=C(C=C2)C(F)(F)F)C(=O)NC3=C(C=C4C(=C3)C=NN4)F
Summary of the method: as §1

[10] = compound: CC1=C(C2=C(C=C1)C(=O)C3=CC=CC=C3N2CCCN)C
Summary of the method: as §1

[11] = compound: CC1=C(C=C(C=C1)NC(=O)C2=CC(=CC=C2)C(C)(C)C#N)NC3=CC4=C(C=C3)N=CN(C4=O)C
Summary of the method: as §1

[12] = compound: CC1=C(C=C(C=C1)NC(=O)C2=CC(=CC=C2)N(C)C)NC(=O)C3=CC=C(C=C3)O
Summary of the method: as §1

[13] = compound: CC1=CC=C(C=C1)SC2=C3C=C(SC3=CN=C2)C(=O)N
Summary of the method: as §1

[14] = compound: C/C(=N\NC(=O)C1=CC(=CC=C1)S(=O)(=O)N2CCOCC2)/C3=C(C=CC(=C3)Cl)O
Summary of the method: as §1

[15] = compound: C1=CC2=C(C=CC(=C2)/C=C\3/C(=O)NC(=NCC4=CC=CS4)S3)N=C1
Summary of the method: as §1

[16] = compound: C1=CC=C2C(=C1)C3=NNC4=CC=CC(=C43)C2=O
Summary of the method: as §1

Measured: log2 fold change

SP3 (UniProt Q02447)
inactive: erlotinib -0.045 | [1] 0.061 | [2] -0.046 | [3] -0.019 | [4] -0.046 | [5] -0.037 | IRAK-1-4 Inhibitor I -0.01 | ibrutinib 0.082 | [6] -0.009 | ralimetinib -0.01 | [7] -0.085 | [8] -0.095 | [9] -0.156 | [10] 0.004 | [11] 0.052 | [12] 0.009 | [13] -0.069

SMARCA4 isoform 4 (UniProt P51532)
inactive: erlotinib 0.052 | [1] 0.178 | [3] 0.127 | [4] 0.112 | [5] -0.076 | IRAK-1-4 Inhibitor I -0.101 | [6] 0.044 | ralimetinib 0.051 | [7] -0.022 | [8] -0.337 | [9] 0.093 | [10] -0.018 | [11] -0.107 | [12] 0.192 | [13] 0.041

SMDT1 (UniProt Q9H4I9)
inactive: erlotinib -0.013 | [1] 0.024 | [2] 0.022 | [3] 0.105 | IRAK-1-4 Inhibitor I -0.087 | ibrutinib -0.001 | [6] 0.076 | ralimetinib 0.058 | [7] 0.066 | [8] -0.087 | [10] -0.122 | [12] 0.039 | [13] -0.033

SPARC (UniProt P09486)
inactive: erlotinib 0.059 | [14] -0.032 | [1] 0.171 | [15] 0.036 | [2] -0.054 | [3] 0.05 | [16] -0.016 | [4] 0.002 | [5] 0 | IRAK-1-4 Inhibitor I -0.014 | ibrutinib -0.051 | ralimetinib -0.03 | [7] -0.1 | [8] -0.083 | [10] -0.084 | [11] -0.062 | [12] 0.012

SNAP47 (UniProt Q5SQN1)
inactive: erlotinib -0.017 | [1] -0.21 | [2] -0.097 | [3] 0.027 | [4] 0.019 | [5] -0.142 | IRAK-1-4 Inhibitor I 0.089 | ibrutinib 0.138 | ralimetinib 0.012 | [7] -0.033 | [8] 0.003 | [9] 0.088 | [10] 0.031 | [11] 0.073 | [12] 0.011

SOHLH2 isoform 3 (UniProt Q9NX45)
inactive: erlotinib -0.009 | [1] -0.057 | [2] -0.062 | [3] 0.026 | [4] 0.031 | [5] -0.07 | IRAK-1-4 Inhibitor I 0.037 | ibrutinib 0.06 | [6] 0.022 | ralimetinib 0.028 | [7] -0.012 | [8] 0.041 | [9] 0.013 | [10] 0.024 | [11] -0.049 | [12] 0.039 | [13] -0.033

SNRPN isoform 2 (UniProt P63162)
inactive: erlotinib -0.008 | [14] 0.047 | [1] 0.109 | [15] -0.025 | [16] 0.108 | [4] -0.154 | [5] -0.038 | [6] -0.057 | [8] -0.259 | [11] -0.098 | [13] -0.023

SNAPC2 (UniProt Q13487)
inactive: erlotinib 0.131 | [1] 0.022 | [2] -0.21 | [3] 0.087 | IRAK-1-4 Inhibitor I -0.166 | ibrutinib 0.092 | ralimetinib 0.002 | [7] -0.029 | [8] -0.032 | [9] -0.073 | [10] -0.071 | [11] -0.008 | [12] 0.011

SNAPC5 (UniProt O75971)
inactive: [14] 0.109 | [15] 0.011 | [16] -0.081 | [9] 0.064

SMYD4 (UniProt Q8IYR2)
inactive: erlotinib 0.151 | [1] 0.015 | [3] -0.022 | IRAK-1-4 Inhibitor I 0.244 | ralimetinib 0 | [7] 0.021 | [8] 0.092 | [10] 0.171 | [11] -0.215 | [12] 0.006

SOSTDC1 isoform 2 (UniProt Q6X4U4)
inactive: [10] -0.03

SMIM11A (UniProt P58511)
inactive: [14] -0.271 | [15] -0.006 | [16] 0.158 | [4] 0.133 | [5] 0.002 | [6] -0.05 | [11] -0.275 | [13] 0.063

SNIP1 (UniProt Q8TAD8)
inactive: [9] -0.062

Pulled one by one from the entries so far (2):
SNAPC5 (UniProt O75971)
inactive: [14] 0.109 | [15] 0.011 | [16] -0.081 | [9] 0.064

SNIP1 (UniProt Q8TAD8)
inactive: [9] -0.062

Additional entries follow.

SMC4 (UniProt C9JJ64)
inactive: [2] -0.013 | ibrutinib -0.146

SMIM4 (UniProt Q8WVI0)
inactive: [2] 0.145 | [3] -0.066 | IRAK-1-4 Inhibitor I -0.028 | ibrutinib 0.06 | [6] -0.29 | ralimetinib 0.084 | [7] 0.032 | [9] -0.044 | [11] 0.023 | [12] 0.004 | [13] -0.024

SNAPC4 (UniProt Q5SXM2)
inactive: [14] -0.015 | [15] -0.008 | [2] -0.002 | [16] -0.069 | [4] -0.074 | [5] -0.053 | ibrutinib 0.06 | [9] 0.039

SOX11 (UniProt P35716)
inactive: [14] 0.046 | [15] -0.036 | [16] -0.064 | [6] 0.081 | [11] 0.011 | [13] -0.145

SMARCD3 (UniProt Q6STE5)
inactive: erlotinib -0.017 | [1] 0.052 | [8] -0.066 | [10] -0.124

SNRNP25 (UniProt Q9BV90)
inactive: [2] 0.017 | [3] 0.078 | IRAK-1-4 Inhibitor I 0.107 | ibrutinib 0.014 | ralimetinib -0.084 | [7] 0.016 | [9] -0.098 | [12] -0.07
